B1: NUP133 (protein, UniProt Q8WUM0 1-1156)
chain: MFPAAPSPRTPGTGSRRGPLAGLGPGSTPRTASRKGLPLGSAVSSPVLFSPVGRRSSLSSRGTPTRMFPHHSITESVNYDVKTFGSSLPVKVMEALTLAEVDDQLTINIDEGGWACLVCKEKLIIWKIALSPITKLSVCKELQLPPSDFHWSADLVALSYSSPSGEAHSTQAVAVMVATREGSIRYWPSLAGEDTYTEAFVDSGGDKTYSFLTAVQGGSFILSSSGSQLIRLIPESSGKIHQHILPQGQGMLSGIGRKVSSLFGILSPSSDLTLSSVLWDRERSSFYSLTSSNISKWELDDSSEKHAYSWDINRALKENITDAIWGSESNYEAIKEGVNIRYLDLKQNCDGLVILAAAWHSADNPCLIYYSLITIEDNGCQMSDAVTVEVTQYNPPFQSEDLILCQLTVPNFSNQTAYLYNESAVYVCSTGTGKFSLPQEKIVFNAQGDSVLGAGACGGVPIIFSRNSGLVSITSRENVSILAEDLEGSLASSVAGPNSESMIFETTTKNETIAQEDKIKLLKAAFLQYCRKDLGHAQMVVDELFSSHSDLDSDSELDRAVTQISVDLMDDYPASDPRWAESVPEEAPGFSNTSLIILHQLEDKMKAHSFLMDFIHQVGLFGRLGSFPVRGTPMATRLLLCEHAEKLSAAIVLKNHHSRLSDLVNTAILIALNKREYEIPSNLTPADVFFREVSQVDTICECLLEHEEQVLRDAPMDSIEWAEVVINVNNILKDMLQAASHYRQNRNSLYRREESLEKEPEYVPWTATSGPGGIRTVIIRQHEIVLKVAYPQADSNLRNIVTEQLVALIDCFLDGYVSQLKSVDKSSNRERYDNLEMEYLQKRSDLLSPLLSLGQYLWAASLAEKYCDFDILVQMCEQTDNQSRLQRYMTQFADQNFSDFLFRWYLEKGKRGKLLSQPISQHGQLANFLQAHEHLSWLHEINSQELEKAHATLLGLANMETRYFAKKKTLLGLSKLAALASDFSEDMLQEKIEEMAEQERFLLHQETLPEQLLAEKQLNLSAMPVLTAPQLIGLYICEENRRANEYDFKKALDLLEYIDEEEDININDLKLEILCKALQRDNWSSSDGKDDPIEVSKDSIFVKILQKLLKDGIQLSEYLPEVKDLLQADQLGSLKSNPYFEFVLKANYEYYVQGQI
B2: NUP107 (protein, UniProt P57740 1-925)
chain: MDRSGFGEISSPVIREAEVTRTARKQSAQKRVLLQASQDENFGNTTPRNQVIPRTPSSFRQPFTPTSRSLLRQPDISCILGTGGKSPRLTQSSGFFGNLSMVTNLDDSNWAAAFSSQRSGLFTNTEPHSITEDVTISAVMLREDDPGEAASMSMFSDFLQSFLKHSSSTVFDLVEEYENICGSQVNILSKIVSRATPGLQKFSKTASMLWLLQQEMVTWRLLASLYRDRIQSALEEESVFAVTAVNASEKTVVEALFQRDSLVRQSQLVVDWLESIAKDEIGEFSDNIEFYAKSVYWENTLHTLKQRQLTSYVGSVRPLVTELDPDAPIRQKMPLDDLDREDEVRLLKYLFTLIRAGMTEEAQRLCKRCGQAWRAATLEGWKLYHDPNVNGGTELEPVEGNPYRRIWKISCWRMAEDELFNRYERAIYAALSGNLKQLLPVCDTWEDTVWAYFRVMVDSLVEQEIQTSVATLDETEELPREYLGANWTLEKVFEELQATDKKRVLEENQEHYHIVQKFLILGDIDGLMDEFSKWLSKSRNNLPGHLLRFMTHLILFFRTLGLQTKEEVSIEVLKTYIQLLIREKHTNLIAFYTCHLPQDLAVAQYALFLESVTEFEQRHHCLELAKEADLDVATITKTVVENIRKKDNGEFSHHDLAPALDTGTTEEDRLKIDVIDWLVFDPAQRAEALKQGNAIMRKFLASKKHEAAKEVFVKIPQDSIAEIYNQCEEQGMESPLPAEDDNAIREHLCIRAYLEAHETFNEWFKHMNSVPQKPALIPQPTFTEKVAHEHKEKKYEMDFGIWKGHLDALTADVKEKMYNVLLFVDGGWMVDVREDAKEDHERTHQMVLLRKLCLPMLCFLLHTILHSTGQYQECLQLADMVSSERHKLYLVFSKEELRKLLQKLRESSLMLLDQGLDPLGYEIQL
B3: CTNNBL1 (protein, UniProt Q8WYA6 1-563)
chain: MDVGELLSYQPNRGTKRPRDDEEEEQKMRRKQTGTRERGRYREEEMTVVEEADDDKKRLLQIIDRDGEEEEEEEEPLDESSVKKMILTFEKRSYKNQELRIKFPDNPEKFMESELDLNDIIQEMHVVATMPDLYHLLVELNAVQSLLGLLGHDNTDVSIAVVDLLQELTDIDTLHESEEGAEVLIDALVDGQVVALLVQNLERLDESVKEEADGVHNTLAIVENMAEFRPEMCTEGAQQGLLQWLLKRLKAKMPFDANKLYCSEVLAILLQDNDENRELLGELDGIDVLLQQLSVFKRHNPSTAEEQEMMENLFDSLCSCLMLSSNRERFLKGEGLQLMNLMLREKKISRSSALKVLDHAMIGPEGTDNCHKFVDILGLRTIFPLFMKSPRKIKKVGTTEKEHEEHVCSILASLLRNLRGQQRTRLLNKFTENDSEKVDRLMELHFKYLGAMQVADKKIEGEKHDMVRRGEIIDNDTEEEFYLRRLDAGLFVLQHICYIMAEICNANVPQIRQRVHQILNMRGSSIKIVRHIIKEYAENIGDGRSPEFRENEQKRILGLLENF
B4: SMC1A (protein, UniProt Q14683 1-1233)
chain: MGFLKLIEIENFKSYKGRQIIGPFQRFTAIIGPNGSGKSNLMDAISFVLGEKTSNLRVKTLRDLIHGAPVGKPAANRAFVSMVYSEEGAEDRTFARVIVGGSSEYKINNKVVQLHEYSEELEKLGILIKARNFLVFQGAVESIAMKNPKERTALFEEISRSGELAQEYDKRKKEMVKAEEDTQFNYHRKKNIAAERKEAKQEKEEADRYQRLKDEVVRAQVQLQLFKLYHNEVEIEKLNKELASKNKEIEKDKKRMDKVEDELKEKKKELGKMMREQQQIEKEIKEKDSELNQKRPQYIKAKENTSHKIKKLEAAKKSLQNAQKHYKKRKGDMDELEKEMLSVEKARQEFEERMEEESQSQGRDLTLEENQVKKYHRLKEEASKRAATLAQELEKFNRDQKADQDRLDLEERKKVETEAKIKQKLREIEENQKRIEKLEEYITTSKQSLEEQKKLEGELTEEVEMAKRRIDEINKELNQVMEQLGDARIDRQESSRQQRKAEIMESIKRLYPGSVYGRLIDLCQPTQKKYQIAVTKVLGKNMDAIIVDSEKTGRDCIQYIKEQRGEPETFLPLDYLEVKPTDEKLRELKGAKLVIDVIRYEPPHIKKALQYACGNALVCDNVEDARRIAFGGHQRHKTVALDGTLFQKSGVISGGASDLKAKARRWDEKAVDKLKEKKERLTEELKEQMKAKRKEAELRQVQSQAHGLQMRLKYSQSDLEQTKTRHLALNLQEKSKLESELANFGPRINDIKRIIQSREREMKDLKEKMNQVEDEVFEEFCREIGVRNIREFEEEKVKRQNEIAKKRLEFENQKTRLGIQLDFEKNQLKEDQDKVHMWEQTVKKDENEIEKLKKEEQRHMKIIDETMAQLQDLKNQHLAKKSEVNDKNHEMEEIRKKLGGANKEMTHLQKEVTAIETKLEQKRSDRHNLLQACKMQDIKLPLSKGTMDDISQEEGSSQGEDSVSGSQRISSIYAREALIEIDYGDLCEDLKDAQAEEEIKQEMNTLQQKLNEQQSVLQRIAAPNMKAMEKLESVRDKFQETSDEFEAARKRAKKAKQAFEQIKKERFDRFNACFESVATNIDEIYKALSRNSSAQAFLGPENPEEPYLDGINYNCVAPGKRFRPMDNLSGGEKTVAALALLFAIHSYKPAPFFVLDEIDAALDNTNIGKVANYIKEQSTCNFQAIVISLKEEFYTKAESLIGVYPEQGDCVISKVLTFDLTKYPDANPNPNEQ

No constants are given. Whether binding was seen depends on the method and setting. In cells and extracts the contact can be indirect. These calls come from enrichment with a bait or labelling near it, and not all partners need be listed.

The assay deals with HA-FLAG-tagged mouse WT BAZ2A (mouse). Put plainly: affinity purification with mass spectrometry; anti-HA magnetic beads IP of F/H-BAZ2AWT or F/H-BAZ2A_(WY/GA) from MNase-digested nuclear extracts of transfected PC3 cells; LC-MS/MS; three replicates; empty vector as control.
Regarding B1, the binding entry is listed as “binds”. The value for B2 was “binds”; that for B3 was “binds”; that for B4 was “binds”.

Values taken from article PMC10130768.
